Laboratory results: the supplement of paper PMC6411743
± gives the standard deviation of the averaged measurements. The entries are a selection whose mix differs from that of the whole data set.

By UniProt entry, the sequences of proteins in these tests, tags left out. Where a name states a change or a piece, a line headed by the entry shows the natural chain unless it says otherwise.
UniProt P50583: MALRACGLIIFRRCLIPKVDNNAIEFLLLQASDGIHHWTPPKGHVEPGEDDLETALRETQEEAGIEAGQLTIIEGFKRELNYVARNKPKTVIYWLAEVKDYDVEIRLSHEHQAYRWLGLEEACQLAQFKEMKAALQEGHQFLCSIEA
UniProt P54920: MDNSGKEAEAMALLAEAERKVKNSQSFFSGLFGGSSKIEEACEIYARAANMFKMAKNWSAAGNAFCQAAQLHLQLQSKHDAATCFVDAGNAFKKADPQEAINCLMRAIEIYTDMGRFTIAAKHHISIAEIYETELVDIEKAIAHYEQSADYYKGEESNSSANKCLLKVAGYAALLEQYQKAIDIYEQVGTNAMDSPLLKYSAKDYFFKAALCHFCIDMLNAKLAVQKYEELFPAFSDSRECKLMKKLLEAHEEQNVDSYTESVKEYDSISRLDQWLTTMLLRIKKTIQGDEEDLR
UniProt P49916: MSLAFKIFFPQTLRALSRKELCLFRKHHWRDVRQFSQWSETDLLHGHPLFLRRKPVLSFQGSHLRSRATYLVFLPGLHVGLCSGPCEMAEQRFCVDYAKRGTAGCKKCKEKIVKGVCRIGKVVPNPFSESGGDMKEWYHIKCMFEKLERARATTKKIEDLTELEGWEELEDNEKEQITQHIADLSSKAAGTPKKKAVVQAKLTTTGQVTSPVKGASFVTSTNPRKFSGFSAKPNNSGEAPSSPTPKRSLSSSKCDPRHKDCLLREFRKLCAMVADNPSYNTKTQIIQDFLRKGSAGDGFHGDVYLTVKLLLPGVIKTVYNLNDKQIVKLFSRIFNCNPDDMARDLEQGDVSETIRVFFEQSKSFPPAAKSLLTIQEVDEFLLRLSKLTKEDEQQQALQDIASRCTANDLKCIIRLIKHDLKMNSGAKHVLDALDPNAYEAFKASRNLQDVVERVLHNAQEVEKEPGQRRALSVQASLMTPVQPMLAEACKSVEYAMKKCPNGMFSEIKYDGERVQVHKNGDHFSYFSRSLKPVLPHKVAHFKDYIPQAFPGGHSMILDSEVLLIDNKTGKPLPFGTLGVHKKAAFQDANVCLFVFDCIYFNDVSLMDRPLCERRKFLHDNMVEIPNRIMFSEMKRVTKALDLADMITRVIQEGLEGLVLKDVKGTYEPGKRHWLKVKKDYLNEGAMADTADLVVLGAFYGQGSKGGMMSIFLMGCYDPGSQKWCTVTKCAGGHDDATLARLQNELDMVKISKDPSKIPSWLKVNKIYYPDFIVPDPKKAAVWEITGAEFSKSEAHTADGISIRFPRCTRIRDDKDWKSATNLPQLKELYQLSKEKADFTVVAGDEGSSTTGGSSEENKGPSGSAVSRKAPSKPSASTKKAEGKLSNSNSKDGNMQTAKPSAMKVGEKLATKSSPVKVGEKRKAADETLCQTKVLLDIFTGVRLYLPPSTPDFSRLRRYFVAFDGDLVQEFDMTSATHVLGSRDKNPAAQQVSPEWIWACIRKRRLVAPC
UniProt P41252: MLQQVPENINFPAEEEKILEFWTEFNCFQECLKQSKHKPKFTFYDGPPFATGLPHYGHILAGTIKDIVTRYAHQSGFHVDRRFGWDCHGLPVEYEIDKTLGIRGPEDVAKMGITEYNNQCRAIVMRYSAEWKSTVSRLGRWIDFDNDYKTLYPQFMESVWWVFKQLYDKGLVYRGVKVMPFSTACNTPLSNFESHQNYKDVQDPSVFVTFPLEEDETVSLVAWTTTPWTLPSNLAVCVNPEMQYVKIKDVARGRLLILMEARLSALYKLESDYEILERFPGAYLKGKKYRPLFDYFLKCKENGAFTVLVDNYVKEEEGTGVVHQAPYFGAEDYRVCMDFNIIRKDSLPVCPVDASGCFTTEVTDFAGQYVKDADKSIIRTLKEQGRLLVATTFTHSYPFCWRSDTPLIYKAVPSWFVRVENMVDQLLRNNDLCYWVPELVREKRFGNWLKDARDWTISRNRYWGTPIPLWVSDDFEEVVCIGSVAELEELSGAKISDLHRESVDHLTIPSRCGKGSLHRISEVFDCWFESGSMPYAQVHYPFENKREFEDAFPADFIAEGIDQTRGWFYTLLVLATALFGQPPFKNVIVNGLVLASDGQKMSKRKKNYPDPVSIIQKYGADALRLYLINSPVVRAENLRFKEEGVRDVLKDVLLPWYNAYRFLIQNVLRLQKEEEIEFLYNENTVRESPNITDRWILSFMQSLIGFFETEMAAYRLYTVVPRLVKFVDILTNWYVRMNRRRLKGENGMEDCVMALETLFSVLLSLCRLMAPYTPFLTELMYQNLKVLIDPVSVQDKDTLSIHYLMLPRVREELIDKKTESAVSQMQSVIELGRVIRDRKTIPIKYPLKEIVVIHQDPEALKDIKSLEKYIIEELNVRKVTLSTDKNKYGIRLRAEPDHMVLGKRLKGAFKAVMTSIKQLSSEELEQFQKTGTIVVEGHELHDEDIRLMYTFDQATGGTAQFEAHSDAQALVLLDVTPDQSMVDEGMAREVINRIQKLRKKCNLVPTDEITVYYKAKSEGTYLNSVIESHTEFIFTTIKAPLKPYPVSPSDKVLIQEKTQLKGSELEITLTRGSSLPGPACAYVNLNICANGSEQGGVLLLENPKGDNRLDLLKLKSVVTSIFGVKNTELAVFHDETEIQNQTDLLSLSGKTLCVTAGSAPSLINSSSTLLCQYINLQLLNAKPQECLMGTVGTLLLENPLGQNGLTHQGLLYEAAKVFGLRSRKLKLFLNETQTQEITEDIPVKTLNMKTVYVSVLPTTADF
UniProt P41236: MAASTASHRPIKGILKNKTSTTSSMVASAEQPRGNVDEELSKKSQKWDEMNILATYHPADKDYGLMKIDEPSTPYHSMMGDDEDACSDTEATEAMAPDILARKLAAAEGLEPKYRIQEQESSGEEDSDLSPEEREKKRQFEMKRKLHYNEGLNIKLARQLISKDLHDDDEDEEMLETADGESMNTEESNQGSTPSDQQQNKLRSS
UniProt P41240: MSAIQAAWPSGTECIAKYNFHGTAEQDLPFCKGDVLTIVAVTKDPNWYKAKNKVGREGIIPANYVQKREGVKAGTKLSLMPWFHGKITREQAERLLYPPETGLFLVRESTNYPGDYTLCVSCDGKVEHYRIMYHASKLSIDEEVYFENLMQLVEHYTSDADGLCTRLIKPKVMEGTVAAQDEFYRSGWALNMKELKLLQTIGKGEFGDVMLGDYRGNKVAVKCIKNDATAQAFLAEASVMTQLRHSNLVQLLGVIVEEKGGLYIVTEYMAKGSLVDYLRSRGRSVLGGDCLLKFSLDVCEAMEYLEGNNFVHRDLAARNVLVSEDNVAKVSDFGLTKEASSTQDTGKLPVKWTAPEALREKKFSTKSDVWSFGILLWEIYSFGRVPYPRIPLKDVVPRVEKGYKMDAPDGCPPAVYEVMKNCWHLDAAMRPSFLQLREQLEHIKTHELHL
UniProt P50454: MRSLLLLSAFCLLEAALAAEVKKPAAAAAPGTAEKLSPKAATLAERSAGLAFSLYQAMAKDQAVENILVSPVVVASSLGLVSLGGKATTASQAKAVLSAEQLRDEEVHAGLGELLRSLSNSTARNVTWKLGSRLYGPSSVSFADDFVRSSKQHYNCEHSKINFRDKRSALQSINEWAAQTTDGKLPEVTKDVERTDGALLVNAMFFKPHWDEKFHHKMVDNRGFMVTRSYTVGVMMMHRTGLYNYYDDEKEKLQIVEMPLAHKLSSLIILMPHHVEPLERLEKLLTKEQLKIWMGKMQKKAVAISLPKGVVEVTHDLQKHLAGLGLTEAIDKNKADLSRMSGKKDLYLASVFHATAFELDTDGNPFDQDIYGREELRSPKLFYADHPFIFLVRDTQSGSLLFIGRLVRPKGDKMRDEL
UniProt P55735: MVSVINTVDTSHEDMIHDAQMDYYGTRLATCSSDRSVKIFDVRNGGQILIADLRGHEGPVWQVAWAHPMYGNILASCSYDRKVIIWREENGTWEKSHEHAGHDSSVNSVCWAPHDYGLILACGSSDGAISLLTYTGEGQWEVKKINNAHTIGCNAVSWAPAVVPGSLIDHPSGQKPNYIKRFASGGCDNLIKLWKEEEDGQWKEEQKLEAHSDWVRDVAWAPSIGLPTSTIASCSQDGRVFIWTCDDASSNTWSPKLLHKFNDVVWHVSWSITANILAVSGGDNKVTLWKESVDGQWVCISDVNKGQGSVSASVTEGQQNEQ
UniProt P49336: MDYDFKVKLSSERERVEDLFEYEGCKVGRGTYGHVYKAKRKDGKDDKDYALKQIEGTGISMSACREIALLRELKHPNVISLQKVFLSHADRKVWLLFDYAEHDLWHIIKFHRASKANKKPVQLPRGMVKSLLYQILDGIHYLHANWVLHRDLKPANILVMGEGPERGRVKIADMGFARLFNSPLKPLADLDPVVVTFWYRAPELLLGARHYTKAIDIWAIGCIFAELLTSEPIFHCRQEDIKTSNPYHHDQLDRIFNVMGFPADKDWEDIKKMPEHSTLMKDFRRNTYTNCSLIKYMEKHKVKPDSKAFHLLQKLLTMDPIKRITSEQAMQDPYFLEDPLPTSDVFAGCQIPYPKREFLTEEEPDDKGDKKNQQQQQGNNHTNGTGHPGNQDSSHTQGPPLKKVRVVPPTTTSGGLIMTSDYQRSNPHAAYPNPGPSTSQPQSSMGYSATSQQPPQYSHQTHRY
UniProt P49721: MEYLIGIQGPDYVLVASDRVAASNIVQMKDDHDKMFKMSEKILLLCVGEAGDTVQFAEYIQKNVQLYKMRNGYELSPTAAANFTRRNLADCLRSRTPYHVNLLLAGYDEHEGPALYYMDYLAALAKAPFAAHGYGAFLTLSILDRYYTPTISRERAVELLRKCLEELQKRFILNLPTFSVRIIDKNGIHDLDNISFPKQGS
UniProt P42224: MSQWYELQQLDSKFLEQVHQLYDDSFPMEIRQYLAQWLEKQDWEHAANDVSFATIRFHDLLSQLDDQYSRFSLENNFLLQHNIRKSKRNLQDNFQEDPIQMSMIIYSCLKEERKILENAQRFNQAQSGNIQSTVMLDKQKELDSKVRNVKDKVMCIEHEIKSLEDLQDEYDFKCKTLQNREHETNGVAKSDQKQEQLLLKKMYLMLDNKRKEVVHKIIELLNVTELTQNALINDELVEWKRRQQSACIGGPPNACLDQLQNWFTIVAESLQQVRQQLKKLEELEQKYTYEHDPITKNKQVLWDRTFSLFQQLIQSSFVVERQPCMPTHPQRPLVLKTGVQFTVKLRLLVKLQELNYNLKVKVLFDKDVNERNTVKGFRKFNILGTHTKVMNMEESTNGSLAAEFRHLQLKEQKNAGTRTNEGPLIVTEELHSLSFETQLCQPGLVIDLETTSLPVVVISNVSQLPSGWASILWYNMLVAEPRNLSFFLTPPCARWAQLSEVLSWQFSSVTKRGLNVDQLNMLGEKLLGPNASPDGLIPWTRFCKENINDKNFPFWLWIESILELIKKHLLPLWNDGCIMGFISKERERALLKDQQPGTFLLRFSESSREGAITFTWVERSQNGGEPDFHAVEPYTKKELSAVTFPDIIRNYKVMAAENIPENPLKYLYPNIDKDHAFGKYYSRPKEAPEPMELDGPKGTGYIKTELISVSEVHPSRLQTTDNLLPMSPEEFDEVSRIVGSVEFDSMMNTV
UniProt P51817: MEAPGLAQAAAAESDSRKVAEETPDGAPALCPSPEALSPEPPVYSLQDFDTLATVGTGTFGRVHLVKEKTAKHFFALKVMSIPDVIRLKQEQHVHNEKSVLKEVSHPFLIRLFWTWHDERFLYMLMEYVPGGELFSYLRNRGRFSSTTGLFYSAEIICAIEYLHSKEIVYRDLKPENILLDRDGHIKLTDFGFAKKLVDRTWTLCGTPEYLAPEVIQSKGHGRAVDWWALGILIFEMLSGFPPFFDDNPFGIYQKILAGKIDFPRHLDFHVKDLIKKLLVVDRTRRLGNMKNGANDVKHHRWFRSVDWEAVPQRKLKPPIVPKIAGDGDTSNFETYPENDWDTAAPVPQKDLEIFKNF
UniProt P49368: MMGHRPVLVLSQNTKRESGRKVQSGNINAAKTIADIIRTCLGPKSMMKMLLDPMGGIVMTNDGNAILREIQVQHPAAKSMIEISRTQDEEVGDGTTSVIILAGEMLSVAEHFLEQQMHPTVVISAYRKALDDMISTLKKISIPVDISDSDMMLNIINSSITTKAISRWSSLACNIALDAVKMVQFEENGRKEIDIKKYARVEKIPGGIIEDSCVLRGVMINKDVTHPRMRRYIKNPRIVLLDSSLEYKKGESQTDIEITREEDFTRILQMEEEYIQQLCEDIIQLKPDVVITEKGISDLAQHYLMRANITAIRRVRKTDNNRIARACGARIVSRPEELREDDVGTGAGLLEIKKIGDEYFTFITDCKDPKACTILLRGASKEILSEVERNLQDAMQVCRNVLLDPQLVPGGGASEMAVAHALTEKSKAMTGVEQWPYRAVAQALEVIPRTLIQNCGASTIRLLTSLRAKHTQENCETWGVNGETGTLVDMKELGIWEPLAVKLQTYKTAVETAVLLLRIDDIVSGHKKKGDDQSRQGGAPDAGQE

Compound: Nc1ncnc2c1ncn2[C@@H]1O[C@H](COP(=O)(O)OP(=O)(O)NP(=O)(O)O)[C@@H](O)[C@H]1O [adenylyl imidodiphosphate]
Test: NP40-soluble protein abundance relative to vehicle (solubility fold change) (ratio); higher = more soluble protein in presence of AMP-PNP
Summary of the method: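 Values are fold changes against the detergent-processed vehicle, based on vsn-normalised intensities. Jurkat crude lysate was treated at eight concentrations from 0.1 to 10 mM (10 min at room temperature, then 3 min at 37 °C), solubilised with 0.8% NP40 and benzonase, ultracentrifuged and analysed by TMT-labelled LC-MS/MS over three independent experiments.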

Target	NP40-soluble protein abundance (concentration: 1mM)	NP40-soluble protein abundance (concentration: 2mM)	NP40-soluble protein abundance (concentration: 4mM)	NP40-soluble protein abundance (concentration: 6mM)	NP40-soluble protein abundance (concentration: 8mM)	NP40-soluble protein abundance (concentration: 10mM)
NUDT2 (UniProt P50583)	0.9311 ± 0.0079	0.909 ± 0.027	1.56 ± 0.26	1.22 ± 0.17	1.49 ± 0.23	1.14 ± 0.14
RANGAP1 (UniProt P46060)	0.9947 ± 0.0076	1 ± 0.032	1 ± 0.036	1.03 ± 0.054	1.04 ± 0.05	1.07 ± 0.064
NAPA (UniProt P54920)	0.986 ± 0.012	1 ± 0.051	0.975 ± 0.044	1 ± 0.037	1.001 ± 0.0071	0.959 ± 0.075
UniProt P41250	0.982 ± 0.014	0.949 ± 0.029	0.9464 ± 0.006	0.99 ± 0.029	0.973 ± 0.045	0.956 ± 0.031
UniProt P48634 and related entries	1.05 ± 0.036	1.12 ± 0.071	1.17 ± 0.051	1.18 ± 0.13	1.21 ± 0.17	1.29 ± 0.18
PTDSS1 (UniProt P48651)	0.993 ± 0.02	0.993 ± 0.043	1.07 ± 0.049	1.15 ± 0.047	1.29 ± 0.085	1.26 ± 0.047
UniProt P49916 and related entries	1.035 ± 0.0059	1.01 ± 0.047	1.03 ± 0.003	1.06 ± 0.019	1.08 ± 0.047	1.12 ± 0.067
IARS (UniProt P41252)	0.962 ± 0.051	0.843 ± 0.18	0.908 ± 0.12	0.918 ± 0.11	0.956 ± 0.14	0.878 ± 0.2
PPP1R2 (UniProt P41236)	1.04 ± 0.072	1.07 ± 0.023	1.03 ± 0.016	1 ± 0.02	0.958 ± 0.044	0.995 ± 0.04
UniProt P50570-4|P50570 and related entries	0.993 ± 0.019	0.932 ± 0.014	0.975 ± 0.038	0.968 ± 0.052	0.988 ± 0.047	0.971 ± 0.054
CSK (UniProt P41240)	0.984 ± 0.024	0.951 ± 0.038	0.962 ± 0.028	0.946 ± 0.017	0.944 ± 0.018	0.905 ± 0.042
SERPINH1 (UniProt P50454)	0.99 ± 0.021	0.9833 ± 0.0064	0.9778 ± 0.0089	0.9783 ± 0.0027	0.983 ± 0.015	0.977 ± 0.015
SEC13 (UniProt P55735)	0.982 ± 0.042	0.934 ± 0.081	0.945 ± 0.03	0.971 ± 0.038	1 ± 0.032	0.964 ± 0.025
SUB1 (UniProt P53999)	0.923 ± 0.049	1 ± 0.19	0.916 ± 0.088	1 ± 0.089	0.997 ± 0.043	1.02 ± 0.11
UniProt P49336 and related entries	1.037 ± 0.0074	1.03 ± 0.02	1.03 ± 0.022	1.04 ± 0.015	1.01 ± 0.021	1.04 ± 0.029
PSMB2 (UniProt P49721)	0.964 ± 0.023	0.86 ± 0.073	0.92 ± 0.062	0.921 ± 0.021	0.97 ± 0.038	0.892 ± 0.062
STAT1 (UniProt P42224)	1.02 ± 0.021	0.987 ± 0.043	0.996 ± 0.022	0.952 ± 0.017	0.9488 ± 0.0094	0.936 ± 0.043
PRKX (UniProt P51817)	0.931 ± 0.029	0.959 ± 0.055	1.02 ± 0.056	0.947 ± 0.027	0.971 ± 0.0095	0.955 ± 0.036
UniProt P49368 and related entries	0.945 ± 0.057	0.927 ± 0.047	0.934 ± 0.077	0.937 ± 0.061	0.922 ± 0.04	0.932 ± 0.13

Whole records from above.
IARS (UniProt P41252) is listed with NP40-soluble protein abundance (concentration: 1mM): 0.962 ± 0.051; NP40-soluble protein abundance (concentration: 2mM): 0.843 ± 0.18; NP40-soluble protein abundance (concentration: 4mM): 0.908 ± 0.12; NP40-soluble protein abundance (concentration: 6mM): 0.918 ± 0.11; NP40-soluble protein abundance (concentration: 8mM): 0.956 ± 0.14; NP40-soluble protein abundance (concentration: 10mM): 0.878 ± 0.2
UniProt P49916 and related entries is listed with NP40-soluble protein abundance (concentration: 1mM): 1.035 ± 0.0059; NP40-soluble protein abundance (concentration: 2mM): 1.01 ± 0.047; NP40-soluble protein abundance (concentration: 4mM): 1.03 ± 0.003; NP40-soluble protein abundance (concentration: 6mM): 1.06 ± 0.019; NP40-soluble protein abundance (concentration: 8mM): 1.08 ± 0.047; NP40-soluble protein abundance (concentration: 10mM): 1.12 ± 0.067
